These are yes or no findings as the source states them, for the method shown. For some of these results: Binding calls can cover weak binding; strength is not graded here. For some of these results: Binding seen in cells or lysates may run through a third protein.
Columns and labels:
[1] = molecular target: BD-OsJAZ10 (rice) (UniProt Q10QW3); experiment: two-hybrid; baits in pGBKT7 (BD), prey AD-OsRAV15 in pGADT7, yeast AH109; growth on SD/-Leu/-Trp/-His/-Ade, 3 days at 30 °C
[2] = molecular target: BD-OsJAZ11 (rice) (UniProt Q8GRS2); experiment: as above
[3] = molecular target: BD-OsJAZ3 (rice) (UniProt Q6ZJU3); experiment: as above
[4] = molecular target: BD-OsJAZ4 (rice) (UniProt Q6ES51); experiment: as above
[5] = molecular target: BD-OsJAZ9 (rice) (UniProt Q8GSI0); experiment: as above
[6] = molecular target: OsRAV15-GFP (rice) (UniProt Q6K3B2); experiment: co-IP; transient co-expression in N. benthamiana leaves; precipitated with FLAG or GFP beads, about 2 h at 4 °C, washed three times with 1 x PBS; immunoblot
[7] = molecular target: OsRAV15-GFP (rice) (UniProt Q6K3B2); experiment: co-IP; co-IP of OsMYC2 and OsRAV15 with or without OsJAZ4 (Figure S15)
[8] = molecular target: OsRAV15-FLAG (rice) (UniProt Q6K3B2); experiment: co-IP; competitive co-IP: components mixed in equal volumes and infiltrated into N. benthamiana leaves with or without P2-GFP, SP8-GFP or M-GFP (HA-GFP as control); 48 hpi; FLAG beads
[9] = molecular target: OsMYC2 (endogenous in rice) (rice (endogenous in rice plants)) (UniProt Q336P5); experiment: co-IP; competitive co-IP in rice: hybrid plants OsRAV15-2#/P2-OX, OsRAV15-2#/SP8-OX and OsRAV15-2#/M-OX
[10] = molecular target: OsMYC2 (endogenous in rice) (rice (endogenous in rice plants)) (UniProt Q336P5); experiment: co-IP; OsRAV15-2# transgenic rice plants; precipitated with Protein A/G OsMYC2 antibody beads; blots with anti-OsMYC2 and anti-MYC
[11] = molecular target: GUS-nYFP (UniProt P05804); experiment: split reporter; BiFC: cYFP and nYFP fusions co-infiltrated into N. benthamiana leaves, confocal microscopy at 48 h
[12] = molecular target: OsMYC2-nYFP (rice) (UniProt Q336P5); experiment: as above

Sequences of proteins named here, by UniProt entry; tags and fusion partners are left off. A change or cut given only in a name is not applied to a line headed by its entry.
UniProt Q10QW3: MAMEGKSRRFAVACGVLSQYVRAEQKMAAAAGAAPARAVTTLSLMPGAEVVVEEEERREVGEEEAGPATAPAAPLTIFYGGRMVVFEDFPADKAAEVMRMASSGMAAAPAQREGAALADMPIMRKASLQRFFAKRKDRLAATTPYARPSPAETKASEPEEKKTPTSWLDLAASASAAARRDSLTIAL
UniProt Q8GRS2: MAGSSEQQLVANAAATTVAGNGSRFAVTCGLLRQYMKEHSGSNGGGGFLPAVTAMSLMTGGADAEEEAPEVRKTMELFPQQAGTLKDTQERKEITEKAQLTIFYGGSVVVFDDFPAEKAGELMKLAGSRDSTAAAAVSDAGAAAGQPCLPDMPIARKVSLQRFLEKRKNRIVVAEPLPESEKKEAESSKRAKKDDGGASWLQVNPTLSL
UniProt Q6ZJU3: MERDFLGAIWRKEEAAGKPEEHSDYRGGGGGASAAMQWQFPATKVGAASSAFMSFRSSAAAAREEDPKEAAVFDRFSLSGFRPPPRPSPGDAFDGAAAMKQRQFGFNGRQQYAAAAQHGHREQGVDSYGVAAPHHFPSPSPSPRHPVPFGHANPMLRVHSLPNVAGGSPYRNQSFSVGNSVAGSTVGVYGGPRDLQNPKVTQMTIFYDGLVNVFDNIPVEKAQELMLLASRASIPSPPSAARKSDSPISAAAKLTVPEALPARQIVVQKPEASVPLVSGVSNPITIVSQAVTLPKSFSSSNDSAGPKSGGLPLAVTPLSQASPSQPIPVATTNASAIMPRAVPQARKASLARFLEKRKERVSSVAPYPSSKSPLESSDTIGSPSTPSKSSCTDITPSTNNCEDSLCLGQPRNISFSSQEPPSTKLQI
UniProt Q6ES51: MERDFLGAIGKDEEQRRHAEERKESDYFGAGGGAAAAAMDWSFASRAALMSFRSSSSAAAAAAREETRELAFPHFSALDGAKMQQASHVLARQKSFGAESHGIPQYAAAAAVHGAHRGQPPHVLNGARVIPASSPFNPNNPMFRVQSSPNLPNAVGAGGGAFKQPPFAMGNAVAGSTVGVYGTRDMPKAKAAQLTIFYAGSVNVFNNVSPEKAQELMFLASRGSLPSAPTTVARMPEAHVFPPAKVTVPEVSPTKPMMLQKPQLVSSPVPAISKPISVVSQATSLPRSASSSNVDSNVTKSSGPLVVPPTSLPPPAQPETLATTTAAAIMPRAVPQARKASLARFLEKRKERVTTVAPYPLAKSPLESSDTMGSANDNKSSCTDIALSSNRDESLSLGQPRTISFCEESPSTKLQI
UniProt Q8GSI0: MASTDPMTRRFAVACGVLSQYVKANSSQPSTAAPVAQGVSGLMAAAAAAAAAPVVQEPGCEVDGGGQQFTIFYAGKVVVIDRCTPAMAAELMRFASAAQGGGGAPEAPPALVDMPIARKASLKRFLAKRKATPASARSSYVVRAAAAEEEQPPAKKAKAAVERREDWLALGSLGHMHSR
UniProt Q6K3B2: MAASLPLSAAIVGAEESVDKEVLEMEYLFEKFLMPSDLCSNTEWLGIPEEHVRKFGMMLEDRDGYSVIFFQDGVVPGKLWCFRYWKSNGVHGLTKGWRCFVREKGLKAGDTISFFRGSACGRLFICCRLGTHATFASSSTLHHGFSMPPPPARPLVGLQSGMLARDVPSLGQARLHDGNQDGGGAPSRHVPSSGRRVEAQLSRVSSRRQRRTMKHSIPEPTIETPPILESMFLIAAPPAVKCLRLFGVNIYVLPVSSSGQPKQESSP
UniProt Q336P5: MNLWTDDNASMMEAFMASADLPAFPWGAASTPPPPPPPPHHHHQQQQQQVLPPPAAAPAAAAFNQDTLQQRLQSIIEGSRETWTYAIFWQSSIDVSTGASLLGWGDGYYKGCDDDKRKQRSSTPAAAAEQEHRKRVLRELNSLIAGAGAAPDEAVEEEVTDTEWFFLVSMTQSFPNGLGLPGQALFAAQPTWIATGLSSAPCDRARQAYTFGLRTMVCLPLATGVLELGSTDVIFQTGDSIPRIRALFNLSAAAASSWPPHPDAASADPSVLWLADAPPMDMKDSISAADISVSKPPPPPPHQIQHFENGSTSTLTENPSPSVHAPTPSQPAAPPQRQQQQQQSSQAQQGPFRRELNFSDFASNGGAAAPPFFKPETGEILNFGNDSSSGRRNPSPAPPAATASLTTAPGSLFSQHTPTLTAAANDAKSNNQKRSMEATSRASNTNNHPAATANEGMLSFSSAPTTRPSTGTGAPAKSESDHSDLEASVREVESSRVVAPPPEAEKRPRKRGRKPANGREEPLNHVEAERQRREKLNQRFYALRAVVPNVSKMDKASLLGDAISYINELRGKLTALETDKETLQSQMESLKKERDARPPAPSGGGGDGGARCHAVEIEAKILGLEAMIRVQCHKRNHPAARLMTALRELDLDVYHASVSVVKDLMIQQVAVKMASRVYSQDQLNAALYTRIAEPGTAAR
UniProt P05804: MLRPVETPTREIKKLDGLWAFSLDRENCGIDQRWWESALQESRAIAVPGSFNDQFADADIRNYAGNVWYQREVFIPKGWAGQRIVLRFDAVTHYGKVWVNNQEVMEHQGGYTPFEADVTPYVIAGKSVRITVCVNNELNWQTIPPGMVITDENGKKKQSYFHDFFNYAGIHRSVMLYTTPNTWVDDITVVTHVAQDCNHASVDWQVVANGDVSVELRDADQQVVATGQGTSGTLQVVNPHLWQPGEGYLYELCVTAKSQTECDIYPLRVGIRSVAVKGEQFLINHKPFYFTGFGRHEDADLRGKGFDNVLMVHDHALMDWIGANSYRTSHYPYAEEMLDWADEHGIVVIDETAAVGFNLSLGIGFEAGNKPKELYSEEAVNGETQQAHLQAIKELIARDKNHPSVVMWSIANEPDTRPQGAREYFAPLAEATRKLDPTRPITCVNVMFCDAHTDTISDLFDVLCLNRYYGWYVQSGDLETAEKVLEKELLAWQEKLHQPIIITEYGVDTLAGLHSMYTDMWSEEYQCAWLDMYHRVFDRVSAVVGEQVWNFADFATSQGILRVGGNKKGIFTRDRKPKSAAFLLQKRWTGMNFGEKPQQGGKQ

**Q.** What does the source list for AD-OsRAV15 (from UniProt Q6K3B2)?
**A.** binding [1]: binds; binding [2]: binds; binding [3]: binds; binding [4]: binds; binding [5]: binds

**Q.** With GUS-MYC (from UniProt P05804 1-603) as the substance, how does the binding [6] read?
**A.** The binding was “no binding”.

**Q.** What does the source list for OsMYC2-MYC (from UniProt Q336P5 1-699)?
**A.** binding [7]: binds; binding [6]: binds; binding [8]: binds

**Q.** Which binding [9] does the source give for “OsRAV15-MYC in transgenic rice (OsRAV15-2#) (from UniProt Q6K3B2)” here?
**A.** The binding was “binds”.

**Q.** What about the binding [10] of the same substance?
**A.** Its binding is “binds”.

**Q.** cYFP-OsRAV15 (from UniProt Q6K3B2) was tested. Which binding [11] did it give?
**A.** Its binding is “no binding”.

**Q.** And the binding [12]?
**A.** The binding was “binds”.

Reference: publication PMC11948057
